# Source: the supplement of paper PMC10338343
# ± gives the standard deviation. The entries are a selection whose mix differs from that of the whole data set. The uncertainty is large for many entries.
# Test system: MILI (PIWIL2) piRISC loaded with piRNA #1 (26 nt)
# Test: pre-steady-state target cleavage rate (min^-1); MIWI and MILI are mouse PIWI proteins and EfPiwi is from a freshwater sponge; tags in brackets are library labels; higher = faster piRNA-guided slicing of the target
# Conditions: guide: piRNA #1 5'p-UGAGGUAGUAGGUUGUAUAGUAUCCA; auxiliary factor: 500 nM mouse GTSF1
# In short: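 Cleave-'n-Seq: 1 nM active affinity-purified piRISC with one synthetic guide and 0.1 nM transcribed, DNA-blocked target RNA library were mixed, with or without 500 nM GTSF1 partner protein, in HEPES–potassium acetate buffer at 33 °C for 0–8 or 0–960 min. Uncleaved targets were sequenced and normalised to depth and to weakly complementary targets, three trials were pooled, and k3 was capped at 0.0001 min^-1. The pre-steady-state cleavage rate was fitted […].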
row,Sequence,pre-steady-state target cleavage rate
1,GGAGACCUAUGAUAUGUUGGUACUACCCUCA,0.000128 ± 0.037
2,GGAGAGGAUACUAUACAACCAAGUACCUCA,0.0015 ± 0.0047
3,GGAGACCUAUGAUAACAAGCAACUACCUCA,0.000594 ± 0.0059
4,GGAGACGAUACUAUACAACGUACAACCUCA,0.0345 ± 0.0071
5,GGAGUGGAUACUAAACAUCCUACUACCUCA,0.242 ± 0.013
6,GGAGACCUAUGAUAACAACCUACUAGGACA,0.000183 ± 0.021
7,GGAGACCUUACUAUACAACCUAGUACCUGA,0.00129 ± 0.0051
8,GGAGACGAUACUAUAGUACCUACUACCUCA,0.193 ± 0.013
9,GGAGACCUUACUUACAACCUACUACCUCA,0.0198 ± 0.0056
10,GGAGUAGGAUACUAUACAACCUACUACCUCA,0.145 ± 0.016
11,GGAGACCUAUCUAUACAACCUACUAACUCA,0.0846 ± 0.017
12,GGAGACCAAACUAUACAACCUACUACGUCA,0.042 ± 0.015
13,GGAGACCUAACUAUACAACCAACUACCUCA,0.00232 ± 0.0082
14,GGAGACCUAUGAUAUGAACCUACUAUCUCA,< 0.0001
15,GGAGACCUAUGAAUUGAACCUACUACCUCA,0.000225 ± 0.019
16,GGAGACCUAUGAUUACAACCUACUAGGACA,0.000193 ± 0.034
17,GGAGACCUAUGAUAUGUACCUACGACCUCA,0.00012 ± 0.022
18,GGAGUCGAUACAAUACAACCUACUACCUCA,0.177 ± 0.012
19,GGAGUGGAUACUAUACAACCUACUACCUGCA,0.109 ± 0.012
20,GGAGAGGAUUACUAUACAACCUACUACCUCA,0.132 ± 0.0095

row,Sequence,pre-steady-state target cleavage rate
1,GGAGACCUAACUAUUGUACCUACUACCUCA,0.00477 ± 0.0036
2,GGAGACCUUACUUAUCAACCUACUACCUCA,0.0518 ± 0.014
3,GGAGAGGAUACUAUCACAACCUACUACCUCA,0.136 ± 0.011
4,GGAGUGGUUACUAAACAACCUACUACCUCA,0.161 ± 0.0092
5,GGAGACCUAUGAUAACAACCUACUACCUCG [g2:g16:cont:t1G],0.00536 ± 0.0027
6,GGAGACCUUAGAAUACAACCUACUACCUCA,0.011 ± 0.004
7,GGAGACCUAUGAUAACAACCUACUAGCACA,0.000776 ± 0.0069
8,GGAGACGAUACUAUACAACCUACGACCUCA,0.146 ± 0.019
9,GGAGACCUAACUAUACAACCUUCUACCUGA,0.00115 ± 0.01
10,GGAGACCUAACUAUACAACCAUGUACCUCA,0.000727 ± 0.015
11,GGAGACCUAUGAUAUCUACCUACUAGCUCA,0.000605 ± 0.0058
12,GGAGUGGAUACUAUACAUCCUAGUACCUCA,0.103 ± 0.019
13,GGAGACCUAUGAUAUGUACCUACGUACCUCA,0.000499 ± 0.011
14,GGAGACCAUACUAUACAACGAUCUACCUCA,< 0.0001
15,GGAGACCUAUGAUAUGUACCUAUUACCUCA,0.000118 ± 0.023
16,GGAGACCUAUGAAUUCAACCUAGUACCUCA,0.00028 ± 0.0096
17,GGAGAGGAUACUAUACAACCUACUACCCUCA,0.11 ± 0.017
18,GGAGACGAUACUAUUACAACCUACUACCUCA,0.172 ± 0.011
19,GGAGACCUAUGAAUACUACCUAGUACCUCA,0.00059 ± 0.0097
20,GGAGACCUAUGAUUACAACCUACUCCUCA,< 0.0001
